This is an account of results in article doi:10.1101/2022.07.10.499475.

Construct, isoform or probe ends are uncertain for at least one entry. For some assays here: No signal at the amounts used counts as a negative.

By Kd is commonly meant a measure of binding affinity in units of concentration. A low value points to a tighter complex.

Assay in all cases: EMSA
A general note: A gel shift assay detects complexes by their altered migration in electrophoresis.

One data set addresses FMRP N-Fold-WT (human) (UniProt Q06787). Conditions: residues 1-455.
The next data set addresses FMRP C-IDR (human) (UniProt Q06787). The following applies: residues 445-632.
Data set [1] has as its target FMRP N-Fold-I304N (human) (UniProt Q06787). The following applies: residues 1-455.
The next data set addresses FMRP-WT (human) (UniProt Q06787). Conditions: residues 1-632.
Another data set concerns the target FMRP-I304N (human) (UniProt Q06787). Conditions: residues 1-632.

“ACGCTGCCGAATTCTACCAGTGCCTTGCTAGGACATCTTTGCCCACCTGCAGGTTCACCC [ssDNA (60 bs)]”: the Kd with FMRP N-Fold-WT (human) worked out at 617 nM; with FMRP C-IDR (human), 79.6 nM; with FMRP-WT (human), 302 nM; with FMRP-I304N (human), 388 nM. The binding result in data set [1] is on record as “no binding”.
